Assay results: US7893024B2, “Enhancement of iron chelation therapy” (priority 2002, dated 2011)
For part of these data: At least one structure is not confirmed: it was looked up by name or label, or the drawing left a doubt. Some entries share one result that the patent states for a list of compounds.

Key:
HeLa cells = test: Cell viability by trypan blue exclusion test; details: 1 mM, 24 hours at 37° C., individual analyses
ferritin = molecular target: T1, ferritin (Aquarana catesbeiana, UniProt P07229); test: Iron release from mineralized recombinant ferritin monitored as formation of Fe(II)-bipyridyl (A522 nm), NADH/FMN reductant; format: biochemical
T1 construct: made in house; host or cells: E. coli BL21-DE3-PLysS, vector pET-9a
T1 sequence (P07229 2-176): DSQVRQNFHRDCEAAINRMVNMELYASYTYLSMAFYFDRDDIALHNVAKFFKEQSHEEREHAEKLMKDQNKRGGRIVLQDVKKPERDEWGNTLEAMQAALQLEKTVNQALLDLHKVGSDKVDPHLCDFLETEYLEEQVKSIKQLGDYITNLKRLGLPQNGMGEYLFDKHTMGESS
Procedure: Briefly, as described in further detail below, recombinant ferritin was expressed, isolated, and mineralized. The mineralized, recombinant ferritin was incubated with a protein unfolding reagent (e.g., urea, guanidine, or Triton X-100). Chelator and reductant was then added to the reaction, and rates of iron release were monitored by UV absorbance detection of formation of Fe(II)-bipyridyl (A522 nm/sec).
Production of recombinant ferritin. Recombinant ferritin was expressed using bullfrog sequences as the kinetic properties have been particularly favorable for study (Takagi H., et al. (1998) J. Biol. Chem. 273:18685)(18)(19)(20). […]
Measurement of iron release rates. Rates of Fe exit from ferritin (rates of dissolving the Fe biomineral) were monitored as formation of Fe(II)-bipyridyl (A522 nm/sec). […] The initial rates of iron chelation were calculated by taking the linear ascending part of the multiphasic reaction curve, averaged from 3 independent assays/protein preparations and 2-3 independent protein preparations.
Triton X-100 and Urea. […] The amount of iron released from ferritin was monitored at room temperature, over a period of one hour, by appearance of absorbance at 522 nm due to formation of the Fe(II)-bipyridyl complex. […]

| Compound | % Nonviable cells (HeLa cells) | initial rates of iron release (0 to 2.0 minutes) relative to absence of agent (ferritin; 1.0% or 10% Triton X-100) | decrease in the time to release 50% of the total iron in ferritin (ferritin; chelator 2,2′-bipyridine, absorbance at 522 nm=0.4) |
| --- | --- | --- | --- |
| Cl.N=C(N)N [guanidine, guanidine hydrochloride] | 12, 0% | – | – |
| Triton X-100 | – | at least 2 fold | 10-20 fold |
